# Test results reported in paper PMC8384837.
# Positions count from the first letter of the chain named. The list shows a part of the results. For some assays here: At the low end of the ranking the order means little.
# Columns and labels:
# Conditions in all cases: yeast three-hybrid, YBZ-1, SC-Leu-His + 0.5 mM 3-AT, 4 days
# [1] = biological target: T1, PUM1 PUF domain R3-RAG C935R + R936A + Q939G (UniProt Q14671)
# T1 sequence: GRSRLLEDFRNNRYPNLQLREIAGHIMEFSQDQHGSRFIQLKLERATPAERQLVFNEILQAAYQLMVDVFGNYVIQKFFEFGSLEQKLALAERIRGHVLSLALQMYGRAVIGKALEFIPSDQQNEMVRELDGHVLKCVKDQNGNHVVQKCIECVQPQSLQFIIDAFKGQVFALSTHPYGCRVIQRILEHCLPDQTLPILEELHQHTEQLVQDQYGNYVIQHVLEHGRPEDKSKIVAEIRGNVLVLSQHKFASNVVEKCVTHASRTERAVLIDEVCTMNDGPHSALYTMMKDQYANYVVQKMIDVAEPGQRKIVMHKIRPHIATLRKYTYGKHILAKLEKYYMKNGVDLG
# [2] = biological target: T2, PUM1 PUF domain R3-RAH C935R + R936A + Q939H (UniProt Q14671)
# T2 sequence: T1 sequence with G112H
# [3] = biological target: T3, PUM1 PUF domain R3-RAL C935R + R936A + Q939L (Homo sapiens) (UniProt Q14671)
# T3 sequence: T1 sequence with G112L
# [4] = biological target: T4, PUM1 PUF domain R3-RAM C935R + R936A + Q939M (UniProt Q14671)
# T4 sequence: T1 sequence with G112M
# [5] = biological target: T5, PUM1 PUF domain R3-RAP C935R + R936A + Q939P (Homo sapiens) (UniProt Q14671)
# T5 sequence: T1 sequence with G112P
# [6] = biological target: T6, PUM1 PUF domain R3-RAQ C935R + R936A (Homo sapiens) (UniProt Q14671)
# T6 sequence: T1 sequence with G112Q
# [7] = biological target: T7, PUM1 PUF domain R3-RAT C935R + R936A + Q939T (Homo sapiens) (UniProt Q14671)
# T7 sequence: T1 sequence with G112T
# [8] = biological target: T8, PUM1 PUF domain R3-RAV C935R + R936A + Q939V (UniProt Q14671)
# T8 sequence: T1 sequence with G112V
# [9] = biological target: T9, PUM1 PUF domain R3-RAW C935R + R936A + Q939W (Homo sapiens) (UniProt Q14671)
# T9 sequence: T1 sequence with G112W
# [10] = biological target: T10, PUM1 PUF domain R3-RAY C935R + R936A + Q939Y (Homo sapiens) (UniProt Q14671)
# T10 sequence: T1 sequence with G112Y
# [11] = biological target: T11, PUM1 PUF domain R3-RCA C935R + R936C + Q939A (Homo sapiens) (UniProt Q14671)
# T11 sequence: T1 sequence with A109C, G112A
# [12] = biological target: T12, PUM1 PUF domain R3-RCD C935R + R936C + Q939D (UniProt Q14671)
# T12 sequence: T1 sequence with A109C, G112D
# [13] = biological target: T13, PUM1 PUF domain R3-RCS C935R + R936C + Q939S (Homo sapiens) (UniProt Q14671)
# T13 sequence: T1 sequence with A109C, G112S
# [14] = biological target: T14, PUM1 PUF domain R3-RCW C935R + R936C + Q939W (Homo sapiens) (UniProt Q14671)
# T14 sequence: T1 sequence with A109C, G112W
# [15] = biological target: T15, PUM1 PUF domain R3-RDR C935R + R936D + Q939R (UniProt Q14671)
# T15 sequence: T1 sequence with A109D, G112R
# [16] = biological target: T16, PUM1 PUF domain R3-RIA C935R + R936I + Q939A (UniProt Q14671)
# T16 sequence: T1 sequence with A109I, G112A
# [17] = biological target: T17, PUM1 PUF domain R3-RIG C935R + R936I + Q939G (UniProt Q14671)
# T17 sequence: T1 sequence with A109I
# [18] = biological target: T18, PUM1 PUF domain R3-RIR C935R + R936I + Q939R (UniProt Q14671)
# T18 sequence: T1 sequence with A109I, G112R
# [19] = biological target: T19, PUM1 PUF domain R3-RIS C935R + R936I + Q939S (UniProt Q14671)
# T19 sequence: T1 sequence with A109I, G112S
# [20] = biological target: T20, PUM1 PUF domain R3-RIY C935R + R936I + Q939Y (UniProt Q14671)
# T20 sequence: T1 sequence with A109I, G112Y
sequence,measurement,setting,value
GGCUAGAACUAGUGGAUCCCCCGGCGCCCGGCGGCUCGAGCCCGGGUAAGUGUAAAUAGUCUGCAUGCCGCCGGGCGCCAUGCCUGCAGGUCGACUCUAGAAAACAUG,binding signal (log2 enrichment (interaction score)),[1],-2.26
same,binding signal (log2 enrichment (interaction score)),[2],< -8.2
same,binding signal (log2 enrichment (interaction score)),[3],-2.33
same,binding signal (log2 enrichment (interaction score)),[4],< -7.39
same,binding signal (log2 enrichment (interaction score)),[5],-2.1
same,binding signal (log2 enrichment (interaction score)),[6],-0.41
same,binding signal (log2 enrichment (interaction score)),[7],-1.84
same,binding signal (log2 enrichment (interaction score)),[8],-2.61
same,binding signal (log2 enrichment (interaction score)),[9],-2.92
same,binding signal (log2 enrichment (interaction score)),[10],-1.14
same,binding signal (log2 enrichment (interaction score)),[11],0.36
same,binding signal (log2 enrichment (interaction score)),[12],< -7.26
same,binding signal (log2 enrichment (interaction score)),[13],0.37
same,binding signal (log2 enrichment (interaction score)),[14],-0.94
same,binding signal (log2 enrichment (interaction score)),[15],-4.55
same,binding signal (log2 enrichment (interaction score)),[16],< -7.17
same,binding signal (log2 enrichment (interaction score)),[17],< -9.45
same,binding signal (log2 enrichment (interaction score)),[18],< -9.57
same,binding signal (log2 enrichment (interaction score)),[19],-4.29
same,binding signal (log2 enrichment (interaction score)),[20],< -7.12

# Two entries from above, bar-delimited:
sequence | measurement | setting | value
GGCUAGAACUAGUGGAUCCCCCGGCGCCCGGCGGCUCGAGCCCGGGUAAGUGUAAAUAGUCUGCAUGCCGCCGGGCGCCAUGCCUGCAGGUCGACUCUAGAAAACAUG | binding signal (log2 enrichment (interaction score)) | [7] | -1.84
same | binding signal (log2 enrichment (interaction score)) | [8] | -2.61
